Assay results reported in article PMC4053104.
Results are given in words; binding and its absence hold for the method and conditions named. Binding seen in cells or lysates may run through a third protein. Some binding calls cover weakened binding; strength is not graded here. One block for each substance: values may come before it.

Amino acid sequences for entries named in this document (tags omitted).
UniProt P38936: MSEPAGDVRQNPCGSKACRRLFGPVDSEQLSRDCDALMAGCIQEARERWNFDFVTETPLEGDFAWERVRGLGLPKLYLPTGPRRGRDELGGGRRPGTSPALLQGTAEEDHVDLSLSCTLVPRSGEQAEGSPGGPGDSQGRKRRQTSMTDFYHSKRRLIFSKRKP
UniProt Q92831: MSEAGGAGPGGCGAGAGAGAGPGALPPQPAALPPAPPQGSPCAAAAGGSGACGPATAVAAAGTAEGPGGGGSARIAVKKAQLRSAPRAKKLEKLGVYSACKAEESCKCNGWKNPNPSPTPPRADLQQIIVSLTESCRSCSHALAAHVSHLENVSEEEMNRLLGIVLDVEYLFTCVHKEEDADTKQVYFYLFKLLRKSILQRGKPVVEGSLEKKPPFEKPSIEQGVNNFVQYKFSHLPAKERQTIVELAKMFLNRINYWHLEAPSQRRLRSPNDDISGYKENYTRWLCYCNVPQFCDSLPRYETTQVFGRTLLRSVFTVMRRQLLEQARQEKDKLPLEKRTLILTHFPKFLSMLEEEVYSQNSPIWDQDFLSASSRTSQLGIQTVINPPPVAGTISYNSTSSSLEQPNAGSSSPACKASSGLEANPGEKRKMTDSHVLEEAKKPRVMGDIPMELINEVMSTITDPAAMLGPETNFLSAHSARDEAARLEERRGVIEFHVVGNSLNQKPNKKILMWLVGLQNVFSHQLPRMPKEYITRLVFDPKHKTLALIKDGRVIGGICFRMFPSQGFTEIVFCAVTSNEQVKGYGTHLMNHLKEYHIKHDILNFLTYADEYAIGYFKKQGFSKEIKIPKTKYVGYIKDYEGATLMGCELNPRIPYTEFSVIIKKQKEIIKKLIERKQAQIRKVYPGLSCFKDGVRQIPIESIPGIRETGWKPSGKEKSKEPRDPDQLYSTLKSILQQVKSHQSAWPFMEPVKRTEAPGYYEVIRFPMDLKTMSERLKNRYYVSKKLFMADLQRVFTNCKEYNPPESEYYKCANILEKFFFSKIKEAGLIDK
UniProt Q15796: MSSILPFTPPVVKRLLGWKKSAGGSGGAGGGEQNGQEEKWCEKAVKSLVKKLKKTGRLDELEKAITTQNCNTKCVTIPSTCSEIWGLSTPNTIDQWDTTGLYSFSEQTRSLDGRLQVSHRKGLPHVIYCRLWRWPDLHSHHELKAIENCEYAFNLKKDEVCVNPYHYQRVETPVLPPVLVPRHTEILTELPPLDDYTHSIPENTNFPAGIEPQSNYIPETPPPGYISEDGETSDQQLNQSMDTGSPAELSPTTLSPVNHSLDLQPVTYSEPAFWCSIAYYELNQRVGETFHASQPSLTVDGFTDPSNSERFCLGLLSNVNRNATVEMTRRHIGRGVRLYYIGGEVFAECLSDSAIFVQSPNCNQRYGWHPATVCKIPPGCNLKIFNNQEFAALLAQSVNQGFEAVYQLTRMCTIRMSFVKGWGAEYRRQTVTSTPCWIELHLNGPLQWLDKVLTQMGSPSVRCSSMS
UniProt P84022: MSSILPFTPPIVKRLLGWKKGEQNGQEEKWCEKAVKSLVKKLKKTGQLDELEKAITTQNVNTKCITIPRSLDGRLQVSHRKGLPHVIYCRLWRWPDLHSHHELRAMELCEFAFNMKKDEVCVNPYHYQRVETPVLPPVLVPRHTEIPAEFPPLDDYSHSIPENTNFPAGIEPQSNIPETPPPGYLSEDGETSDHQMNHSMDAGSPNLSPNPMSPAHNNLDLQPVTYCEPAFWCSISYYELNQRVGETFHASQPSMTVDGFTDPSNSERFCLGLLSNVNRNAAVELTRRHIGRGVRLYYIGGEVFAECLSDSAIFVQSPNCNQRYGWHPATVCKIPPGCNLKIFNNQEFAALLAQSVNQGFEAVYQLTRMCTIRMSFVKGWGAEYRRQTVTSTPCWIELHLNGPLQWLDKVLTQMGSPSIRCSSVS

Columns and labels:
[1] = biological target: flag-p21 (Flag-tagged human p21Cip1) (human) (UniProt P38936); experiment: co-IP; HEK293 and SCP2 cells co-transfected with myc-Smad2, myc-Smad3 and flag-p21, stimulated with TGFβ for 8 hrs; lysates immunoprecipitated with an anti-flag antibody, immunoblotted with Smad2/3 and p21 or flag antibodies
[2] = biological target: p300/CBP-associated factor (p/CAF), endogenous (human (endogenous in SCP2, SUM159 and HEK293)) (UniProt Q92831); experiment: co-IP; endogenous proteins; SCP2 and SUM159 cells treated with TGFβ; immunoprecipitation overnight at 4°C with antibodies against p300/CBP, p/CAF and p21, protein G-Sepharose, immunoblotting
6× myc-Smad2 = 6× myc-Smad2 (UniProt Q15796); experiment: co-IP; HEK293 cells co-transfected with myc-Smad3, myc-Smad2 and p/CAF; Smad2/3 immunoprecipitated with an anti-myc antibody, Western blotting
myc-Smad3 = myc-Smad3 (UniProt P84022); experiment: as above

- binding [1]: no binding
Substance: 6× myc-Smad2 (from UniProt Q15796 1-467)

- binding [2]: binds
Substance: p21Cip1 (endogenous) (from UniProt P38936 1-164)

- binding (6× myc-Smad2): binds
- binding (myc-Smad3): binds
Substance: p/CAF (transfected, Addgene plasmid 8941) (from UniProt Q92831 1-832)
